In US20210188972A1 (A AND G PHARMACEUTICAL, published 2021):
Results are given in words; binding and its absence hold for the method and conditions named. Some results given as binding are weak or reduced against the parent protein; the word gives no strength. Where a sequence is shown, tags or fusion partners need not be part of it.

What was measured:
[1] = target: T1, Prostaglandin F2 Receptor Inhibitor (PTGFRN), human, on cells (human) (UniProt Q9P2B2); assay: flow binding assay on A431 cells; concentration not given
T1 sequence (looked up): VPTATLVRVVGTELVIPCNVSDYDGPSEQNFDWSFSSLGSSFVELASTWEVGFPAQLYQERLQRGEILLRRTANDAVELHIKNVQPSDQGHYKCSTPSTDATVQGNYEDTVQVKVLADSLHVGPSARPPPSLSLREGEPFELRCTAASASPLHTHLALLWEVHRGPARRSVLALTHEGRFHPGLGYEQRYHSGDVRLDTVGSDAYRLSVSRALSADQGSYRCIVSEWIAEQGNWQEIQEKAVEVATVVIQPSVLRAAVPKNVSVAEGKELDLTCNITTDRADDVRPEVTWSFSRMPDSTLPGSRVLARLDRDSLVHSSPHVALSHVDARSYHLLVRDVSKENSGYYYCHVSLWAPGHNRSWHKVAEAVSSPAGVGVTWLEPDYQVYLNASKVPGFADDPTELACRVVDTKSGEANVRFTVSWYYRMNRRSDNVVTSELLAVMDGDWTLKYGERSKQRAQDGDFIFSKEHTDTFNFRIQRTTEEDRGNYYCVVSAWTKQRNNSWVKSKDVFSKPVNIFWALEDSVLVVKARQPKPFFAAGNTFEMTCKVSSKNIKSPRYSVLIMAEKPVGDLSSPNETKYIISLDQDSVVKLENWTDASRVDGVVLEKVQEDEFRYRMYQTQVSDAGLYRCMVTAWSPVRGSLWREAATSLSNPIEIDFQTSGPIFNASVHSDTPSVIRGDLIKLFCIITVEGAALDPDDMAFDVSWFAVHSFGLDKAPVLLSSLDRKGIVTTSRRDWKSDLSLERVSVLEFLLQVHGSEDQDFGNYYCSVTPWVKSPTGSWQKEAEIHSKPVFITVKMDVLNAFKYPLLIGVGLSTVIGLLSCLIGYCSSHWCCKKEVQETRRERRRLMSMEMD

[2] = target: T1, Prostaglandin F2 Receptor Inhibitor (PTGFRN), human, on cells (human); assay: flow binding assay on DAOY cells

B1: 3E10 (antibody, V domains shown)
VH: EVHLVESGGDLVKPGGSLKLSCAASGFTFSSYGMSWVRQTPDKRLEWVASISSGGSHTYYPDRVKGRFTISRDNAKNTLYLQMSSLKSEDTAMYYCARHPSYYGSSLYCFDYWGQGTTLTVSS
VL: DIQMTQTTSSLSASLGDRVTISCRASQDISNYLNWYQQKPDGTVKLLIYYTSRLHSGVPSRFSGSGSGTDFSLTISNLEQEDVATYFCQQGSTLPWTFGGGTKLEIK
binding [1]: binds
binding [2]: binds
